# Source: patent publication US20240218022A1, “ANTI-VISTA MACROCYCLIC PEPTIDES AND COMPOSITIONS” (BRISTOL-MYERS SQUIBB COMPANY, priority 2022, published 2024)
# Where two headings read alike, the source gives them in different places. At least one structure is not confirmed: it was looked up by name or label, or the drawing left a doubt. Starred links: 1 amine or outer side, 2 acyl side, 3 side chain; linkers in the order of their positions; H or OH if unused. Positions of bridges follow the written chain, without caps; N, C: chain ends. Non-standard residues stand in square brackets, D forms with d. Residues, ends and D or L forms follow the SMILES beside them. Phe(4-CONH2) = NC(=O)c1ccc(C[C@H](N)C(=O)O)cc1; Phe(4-COOH) = N[C@@H](Cc1ccc(C(=O)O)cc1)C(=O)O; Phe(3-Me) = Cc1cccc(C[C@H](N)C(=O)O)c1; 2Nal = N[C@@H](Cc1ccc2ccccc2c1)C(=O)O; βAsp = O=C(O)[C@H](CC(=O)[*:2])N[*:1]; Cit = NC(=O)NCCC[C@H](N)C(=O)O; NMeL = CN[C@@H](CC(C)C)C(=O)O; Ahp(2) = CCCCC[C@H](N)C(=O)O; NMeNle = CCCC[C@H](NC)C(=O)O; Tle = CC(C)(C)[C@H](N)C(=O)O; NMeS = CN[C@@H](CO)C(=O)O; Pip = O=C(O)[C@@H]1CCCCN1; NHexGly = CCCCCCNCC(=O)O; Nle = CCCC[C@H](N)C(=O)O; Orn = NCCC[C@H](N)C(=O)O; Aun = NCCCCCCCCCCC(=O)O; AEEA = NCCOCCOCC(=O)O
# Biological target: T1, mouse VISTA (mVISTA) (Mus musculus, UniProt Q9D659)
# T1 construct: expressed in transfected cells; host or cells: Human embryonic kidney 293T cells
# T1 sequence (Q9D659 33-308): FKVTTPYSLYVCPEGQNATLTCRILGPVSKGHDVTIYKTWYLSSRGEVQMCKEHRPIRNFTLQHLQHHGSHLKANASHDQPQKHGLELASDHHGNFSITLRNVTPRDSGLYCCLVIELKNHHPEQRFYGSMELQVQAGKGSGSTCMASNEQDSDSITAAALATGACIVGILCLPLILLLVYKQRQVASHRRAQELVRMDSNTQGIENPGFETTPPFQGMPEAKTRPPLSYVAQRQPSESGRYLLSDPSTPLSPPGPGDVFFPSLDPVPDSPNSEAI
# Test: Cell-Based Binding High-Content Assay For mVISTA (HC CBA mVISTA)
# Procedure: Cell-Based Binding High-Content Assay For mVISTA
# Human embryonic kidney 293T cells (293T) expressing mouse VISTA (mVISTA) were used for the assessment of compounds competing with the binding of a biotinylated peptide. Cryopreserved cells were thawed in a 37° C. water bath and incubated overnight at a 37° C./5% CO2 incubator in assay culture media DMEM (Life Technologies Inc. Cat. No. 11995-126) supplemented with 10% (v/v) FBS (Sigma, Cat. No. F4135), 1× Penicillin/Streptomycin (Life Technologies Inc. Cat. No. 15140-122). Cells were harvested, washed and resuspended in DMEM media […]. To test compounds under “no-wash” condition, cells were seeded into PDL-coated 384 well plates (Corning, Cat. No. 356663) at 4,000 cells/20 μL. After incubating the cell plates for two hours at a 37° C./5% CO2 incubator, 125 nL of test compound was added using an ECHO. Alternatively, to test compounds under “wash” condition, test compounds were added first, followed by addition of 20 μL cells at a density of 4000 cells/well. After incubation for an hour, the media was removed, followed by addition of 20 μL of fresh media ( ), and plates were then incubated for another hour. To plates either under “no wash” or “wash” condition, the biotinylated peptide was added to a final concentration of 2 nM, and plates were incubated at room temperature for 30 minutes. Fifteen (15) μL of Alexa 647 conjugated Streptavidin (Life Tech, Cat. No. S21374), suspended at 2 μg/ml in media, was added to the assay plate and incubate for 30 minutes. Cells were fixed by adding 15 μL of formaldehyde at a final concentration of 8% (w/v) (Sigma Cat. No. 252549), 20 μg/mL Hoechst (Thermo Scientific Cat. No. 62249) in PBS for 10 minutes at room temperature. The plates were washed 3 times in dPBS, sealed, and read on a CellInsight NXT High Content Screening Platform IC903000 (Thermo Scientific). The 50% effective concentration (IC50) was calculated using the four-parameter logistic formula y=A+((B−A)/(1+((C/x)^D))), where A and B denote minimal and maximal % inhibition, respectively, C is the EC50, D is hill slope and x represent compound concentration.
# [1] = cell-based binding high-content assay, mVISTA, read-out: HC CBA miPr ISTA IC50
smiles,measurement,setting,value
CCCCCCN1CC(=O)N[C@@H](Cc2ccc(O)cc2)C(=O)N[C@@H](CCCCC)C(=O)N[C@@H](CC(N)=O)C(=O)N[C@@H](CCCNC(=N)N)C(=O)N(CCCCCC)CC(=O)N[C@@H](CCCCC)C(=O)N2CCC[C@H]2C(=O)N[C@@H](C(C)C)C(=O)N[C@@H](CC(N)=O)C(=O)N[C@H](C(=O)NCC(=O)O)CSCC(=O)N[C@@H](Cc2ccccc2)C(=O)N[C@@H](Cc2ccc(O)cc2)C(=O)N[C@@H](CC(=O)O)C1=O [compound 1156] ({CH2CO}-FYD[NHexGly]Y[Ahp(2)]NR[NHexGly][Ahp(2)]PVNCG-OH; thioether N-14),IC50,read-out: HC CBA mVISTA IC50,36.7 nM
CCCCCCN1CC(=O)N[C@@H](Cc2ccc(O)cc2)C(=O)N[C@@H](CCCC)C(=O)N[C@@H](CC(N)=O)C(=O)N[C@@H](CCCNC(=N)N)C(=O)N(C)[C@@H](CCCC)C(=O)N[C@@H](CCCCC)C(=O)N2CCC[C@H]2C(=O)N[C@@H](C(C)C)C(=O)N[C@@H](CO)C(=O)N[C@H](C(=O)N[C@@H](CC(=O)NCCOCCOCC(=O)NCCCCCCCCCCC(=O)O)C(=O)O)CSCC(=O)N[C@@H](Cc2ccccc2)C(=O)N[C@@H](Cc2c[nH]c3ccccc23)C(=O)N[C@@H](CC(=O)O)C1=O [Example 2165] ({CH2CO}-FWD[NHexGly]Y[Nle]NR[NMeNle][Ahp(2)]PVSC[βAsp][AEEA][Aun]-OH; thioether N-14),IC50,read-out: HC CBA mVISTA IC50,16.7 nM
CCCCCCN1CC(=O)N[C@@H](Cc2ccc(O)cc2)C(=O)N[C@@H](CC(C)C)C(=O)N[C@@H](CC(N)=O)C(=O)N[C@@H](CCCN)C(=O)N(C)[C@@H](CO)C(=O)N[C@@H](CCCCC)C(=O)N2CCC[C@H]2C(=O)N[C@@H](C(C)(C)C)C(=O)N[C@@H](CO)C(=O)N[C@H](C(=O)N[C@@H](CC(=O)NCCOCCOCC(=O)N[C@@H](CC(=O)O)C(=O)NCCOCCOCC(=O)NCCCCCCCCCCC(=O)O)C(=O)O)CSCC(=O)N[C@@H](Cc2ccccc2)C(=O)N[C@@H](Cc2c[nH]c3ccccc23)C(=O)N[C@@H](CC(=O)O)C1=O [compound 2043] ({CH2CO}-FWD[NHexGly]YLN[Orn][NMeS][Ahp(2)]P[Tle]SC[βAsp][AEEA]D[AEEA][Aun]-OH; thioether N-14),IC50,[1],32.9 nM
CCCCCCN1CC(=O)N[C@@H](Cc2ccc(O)cc2)C(=O)N[C@@H](CC(C)C)C(=O)N[C@@H](CC(N)=O)C(=O)N[C@@H](CCCN)C(=O)N(C)[C@@H](CC(C)C)C(=O)N[C@@H](CCCCC)C(=O)N2CCC[C@H]2C(=O)N[C@@H](C(C)(C)C)C(=O)N[C@@H](CO)C(=O)N[C@H](C(=O)N[C@@H](CC(=O)NCCOCCOCC(=O)N[C@@H](CC(=O)O)C(=O)NCCOCCOCC(=O)NCCCCCCCCCCC(=O)O)C(=O)O)CSCC(=O)N[C@@H](Cc2ccc(C(=O)O)cc2)C(=O)N[C@@H](Cc2ccc(O)cc2)C(=O)N[C@@H](CC(=O)O)C1=O [compound 2049] ({CH2CO}-[Phe(4-COOH)]YD[NHexGly]YLN[Orn][NMeL][Ahp(2)]P[Tle]SC[βAsp][AEEA]D[AEEA][Aun]-OH; thioether N-14),IC50,[1],28.8 nM
CCCCCCN1CC(=O)N[C@@H](Cc2ccc(O)cc2)C(=O)N[C@@H](CCCC)C(=O)N[C@@H](CC(N)=O)C(=O)N[C@@H](CCCNC(=N)N)C(=O)N(C)[C@@H](CC(C)C)C(=O)N[C@@H](CCCCC)C(=O)N2CCC[C@H]2C(=O)N[C@@H](C(C)C)C(=O)N[C@@H](CO)C(=O)N[C@H](C(=O)N[C@@H](CC(=O)NCCOCCOCC(=O)NCCCCCCCCCCC(=O)O)C(=O)O)CSCC(=O)N[C@@H](Cc2ccccc2)C(=O)N[C@@H](Cc2c[nH]c3ccccc23)C(=O)N[C@@H](CC(=O)O)C1=O [Example 2158] ({CH2CO}-FWD[NHexGly]Y[Nle]NR[NMeL][Ahp(2)]PVSC[βAsp][AEEA][Aun]-OH; thioether N-14),IC50,read-out: HC CBA mVISTA IC50,12.3 nM
CCCCCCN1CC(=O)N[C@@H](Cc2ccc(O)cc2)C(=O)N[C@@H](CCCC)C(=O)N[C@@H](CC(N)=O)C(=O)N[C@@H](CCCNC(=N)N)C(=O)N(C)[C@@H](CCCC)C(=O)N[C@@H](CCCCC)C(=O)N2CCC[C@H]2C(=O)N[C@@H](C(C)C)C(=O)N[C@@H](CC(=O)O)C(=O)N[C@H](C(=O)N[C@@H](CC(=O)NCCOCCOCC(=O)NCCCCCCCCCCC(=O)O)C(=O)O)CSCC(=O)N[C@@H](Cc2ccc3ccccc3c2)C(=O)N[C@@H](Cc2ccc(O)cc2)C(=O)N[C@@H](CC(=O)O)C1=O [Example 2147] ({CH2CO}-[2Nal]YD[NHexGly]Y[Nle]NR[NMeNle][Ahp(2)]PVDC[βAsp][AEEA][Aun]-OH; thioether N-14),IC50,read-out: HC CBA mVISTA IC50,15.2 nM
CCCCCCN1CC(=O)N[C@@H](Cc2ccc(O)cc2)C(=O)N[C@@H](CCCC)C(=O)NCC(=O)N[C@@H](CCCN)C(=O)N[C@@H](CC(C)C)C(=O)N[C@@H](CCCCC)C(=O)N2CCC[C@H]2C(=O)N[C@@H](C(C)C)C(=O)N[C@@H](CO)C(=O)N[C@H](C(=O)NCC(=O)O)CSCC(=O)N[C@@H](Cc2ccccc2)C(=O)N[C@@H](Cc2ccc(O)cc2)C(=O)N[C@@H](CC(=O)O)C1=O [Example 1045] ({CH2CO}-FYD[NHexGly]Y[Nle]G[Orn]L[Ahp(2)]PVSCG-OH; thioether N-14),IC50,"293T cells expressing mouse VISTA, competition with biotinylated peptide (2 nM), read-out: HC CBA mVISTA IC50",27.4 nM
CCCCCCN1CC(=O)N[C@@H](Cc2ccc(O)cc2)C(=O)N[C@@H](CC(C)C)C(=O)N[C@@H](CC(N)=O)C(=O)N[C@@H](CCCN)C(=O)N(C)[C@@H](CCCC)C(=O)N[C@@H](CCCCC)C(=O)N2CCC[C@H]2C(=O)N[C@@H](C(C)(C)C)C(=O)N[C@@H](CO)C(=O)N[C@H](C(=O)N[C@@H](CC(=O)NCCOCCOCC(=O)N[C@@H](CC(=O)O)C(=O)NCCOCCOCC(=O)NCCCCCCCCCCC(=O)O)C(=O)O)CSCC(=O)N[C@@H](Cc2ccc(C(N)=O)cc2)C(=O)N[C@@H](Cc2ccc(O)cc2)C(=O)N[C@@H](CC(=O)O)C1=O [compound 2089] ({CH2CO}-[Phe(4-CONH2)]YD[NHexGly]YLN[Orn][NMeNle][Ahp(2)]P[Tle]SC[βAsp][AEEA]D[AEEA][Aun]-OH; thioether N-14),IC50,"cell-based binding high-content assay, mVISTA, read-out: HC CBA miPrISTA IC50",19.5 nM
CCCCCCN1CC(=O)N[C@@H](Cc2ccc(O)cc2)C(=O)N[C@@H](CCCCC)C(=O)N[C@@H](CC(N)=O)C(=O)N[C@@H](CCCNC(=N)N)C(=O)N[C@@H](CC(C)C)C(=O)N[C@@H](CCCCC)C(=O)N2CCCC[C@H]2C(=O)N[C@@H](C(C)C)C(=O)N[C@@H](CO)C(=O)N[C@H](C(=O)NCC(N)=O)CSCC(=O)N[C@@H](Cc2ccccc2)C(=O)N[C@@H](Cc2ccc(O)cc2)C(=O)N[C@@H](CC(=O)O)C1=O [compound 1153] ({CH2CO}-FYD[NHexGly]Y[Ahp(2)]NRL[Ahp(2)][Pip]VSCG-NH2; thioether N-14),IC50,read-out: HC CBA mVISTA IC50,34.6 nM
CCCCCCN1CC(=O)N[C@@H](Cc2ccc(O)cc2)C(=O)N[C@@H](CC(C)C)C(=O)N[C@@H](CC(N)=O)C(=O)N[C@@H](CCCNC(=N)N)C(=O)N[C@@H](CC(C)C)C(=O)N[C@@H](CCCCC)C(=O)N2CCC[C@H]2C(=O)N[C@@H](C(C)C)C(=O)N[C@@H](C(C)C)C(=O)N[C@H](C(=O)NCCOCCOCC(=O)N[C@@H](CCC(=O)O)C(=O)NCCOCCOCC(=O)NCCCCCCCCCCC(=O)O)CSCC(=O)N[C@@H](Cc2ccccc2)C(=O)N[C@@H](Cc2ccc(O)cc2)C(=O)N[C@@H](CC(=O)O)C1=O [compound 2302] ({CH2CO}-FYD[NHexGly]YLNRL[Ahp(2)]PVVC[AEEA]E[AEEA][Aun]-OH; thioether N-14),IC50,"cell-based binding high-content assay, read-out: HC CBA miPrISTA IC50",14.9 nM
CCCCCCN1CC(=O)N[C@@H](Cc2ccc(O)cc2)C(=O)N[C@@H](CCCC)C(=O)N[C@@H](CC(N)=O)C(=O)N[C@@H](CCCNC(N)=O)C(=O)N[C@@H](CC(C)C)C(=O)N[C@@H](CCCCC)C(=O)N2CCC[C@H]2C(=O)N[C@@H](C(C)C)C(=O)N[C@@H](CC(=O)O)C(=O)N[C@H](C(=O)NCC(=O)NCCOCCOCC(=O)N[C@@H](CC(=O)O)C(=O)NCCOCCOCC(=O)NCCCCCCCCCCC(=O)O)CSCC(=O)N[C@@H](Cc2cccc(C)c2)C(=O)N[C@@H](Cc2c[nH]c3ccccc23)C(=O)N[C@@H](CC(=O)O)C1=O [compound 2017] ({CH2CO}-[Phe(3-Me)]WD[NHexGly]Y[Nle]N[Cit]L[Ahp(2)]PVDCG[AEEA]D[AEEA][Aun]-OH; thioether N-14),IC50,[1],11.1 nM
